# Laboratory results: patent US20210361735A1, “MINIGASTRIN DERIVATES, IN PARTICULAR FOR USE IN CCK2 RECEPTOR POSITIVE TUMOUR DIAGNOSIS AND/OR TREATMENT” (PAUL SCHERRER INSTITUT, priority 2017, published 2021)
# Not every detail of the peptide structures is certain; ends, links or a residue may be inferred. Square brackets hold non-standard residues; d marks the D form. Peptide text beside a SMILES is read from it. * marks the point of attachment. DOTA = O=C(O)CN1CCN(CC(=O)O)CCN(CC(=O)*)CCN(CC(=O)O)CC1; Nle = CCCC[C@H](N)C(=O)O
# Test: Fig. 4
# Protocol: Table printed on a drawing sheet, Fig. 4
# Footnotes: Significant improvement / Significant drawback
# First reader's note: Light grey shading of a cell marks a significant improvement and dark grey shading a significant drawback; logD was measured at pH 7.4.
compound,measurement,value
"CCCC[C@H](NC(=O)[C@H](Cc1c[nH]c2ccccc12)NC(=O)CNC(=O)[C@H](Cc1ccc(O)cc1)NC(=O)[C@H](C)NC(=O)[C@@H](CCC(=O)O)NC(=O)CN1CCN(CC(=O)O)CCN(CC(=O)O)CCN(CC(=O)O)CC1)C(=O)N[C@@H](CC(=O)O)C(=O)N[C@@H](Cc1ccccc1)C(N)=O [DOTA[Nle15]-MG11, DOTA-DGlu-Ala-Tyr-Gly-Trp-Nle-Asp-Phe-NH2] ({DOTA}-[dE]AYGW[Nle]DF-NH2)",Plasma half live,4.2 h
